Where a name gives a salt, the structure may show the parent alone. At least one structure is not confirmed: it was looked up by name or label, or the drawing left a doubt.
System: solid tumours and haematological malignancies cell lines
Experiment: Solid tumour and haematological malignancy assay, cell line panel (Example A)
Type: cell-based
Details: against many cell lines of Table 2

## C[C@H](NP(=O)(Oc1ccccc1)OP(=O)(O)OP(=O)(O)OC[C@H]1O[C@@H](n2cnc3c(N)nc(Cl)nc32)C(F)[C@H]1O)C(=O)OCc1ccccc1 (stereo partly drawn) [Compound 5a, (2S)-Benzyl 2-(((((((((2R,3R,4S,5R)-5-(6-amino-2-chloro-9H-purin-9-yl)-4-fluoro-3-hydroxytetrahydrofuran-2-yl)methoxy)(hydroxy)phosphoryl)oxy) (hydroxy)phosphoryl)oxy)(phenoxy)phosphoryl)amino)propanoate, di-triethylammonium salt]
  activity compared to the corresponding monophosphate phosphoramidate: more active
